Laboratory results published in patent publication US10086010B2 (STC.UNM, priority 2014, dated 2018).
At least one compound was matched to its structure with a doubt left.

System: PARP1
Experiment: Immunoblot detection of PARP1 cleavage
Type: cell-based, human
Conditions: 5-FU and hmUdR 72 h; control 50 μM LY294002 1 h followed by 4 h 100 μg/ml TRAIL
Protocol: After […] on ice, cells were scraped and […] for 10 min at 4° C. The supernatant was recovered. This whole cell extract (50 μg protein) was subjected to SDS-containing polyacrylamide gel electrophoresis, and transferred to Immobilon-P membrane (Millipore). For detection of poly(ADP-ribose), the nuclear pellet was recovered after removing the whole cell extract as prepared above except that the lysis buffer was supplemented with 50 μM ethacridine, an inhibitor of poly(ADP-ribose) glycohydrolase. 10 μg protein of the nuclear pellet was subjected to gel electrophoresis and transfer to membrane as described above. Primary antibodies used in this study were anti-PARP1 monoclonal mouse antibody (Trevigen), anti-p62 polyclonal rabbit antibody (Santa Cruz Biotechnology), anti-LC3 polyclonal rabbit antibody (Novus Biologicals), anti-β-actin monoclonal mouse antibody (Sigma), and anti-PCNA monoclonal antibody (PC10; Santa Cruz Biotechnology), anti-poly(ADP-ribose) mouse monoclonal antibody (Tulip Biolabs). […] Immunoblot signals were detected either by Odyssey Imaging System (LI-COR Biotechnology) or by exposure of X-ray films to the membrane soaked in ECL reagent (GE Healthcare).

In the case of `O=c1cc(N2CCOCC2)oc2c(-c3ccccc3)cccc12` [LY294002], the “PARP1 cleavage (characteristic of apoptosis)” value is reported as “induced”.
